For at least one entry, the source does not settle the construct or the ends of the probe.
Test system: GST-OsbZIP48 (Oryza sativa cv. Nipponbare)
Assay: EMSA

“AGGAGAGGTTAACATCGACACCGCCGTCGACCTCAACA (double strand) [EM-ZIP4 (OsZIP4 promoter ZDRE probe)]”: binds.
“CTTCTTATTTACTAATTTCTTCTCTCTCTGTCGACGTCAGGAAAATACTACAAATCAGCAGCCTGGTGGATTGGACG (double strand) [EM-ZIP8 (OsZIP8 promoter ZDRE probe)]”: binds.

Source: doi:10.1101/2023.05.18.541251
